Measured values published in the supplement of paper PMC4604168 (melanoma cell lines).
The other results are listed elsewhere or left out. Repeats are few or missing, and single values can be far off.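 Cells were imaged in 1,536-well plates, and nuclei stained with an antibody against cleaved PARP were counted against all DNA-stained nuclei to give the apoptosis fraction. Screening doses were chosen to leave most cells alive, and resting and induced cleaved-PARP levels differ strongly between cell lines.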

Columns and labels:
Test in all cases: cleaved PARP positive nuclei fraction relative to DMSO control; melanoma cells; higher = more apoptosis
Conditions in all cases: library dose: low library concentration; 72 h
WM115 = tested on: WM115
WM1716 = tested on: WM1716
WM1745 = tested on: WM1745
WM3526 = tested on: WM3526
WM3619 = tested on: WM3619
WM451Lu = tested on: WM451Lu

Row | SMILES | cleaved PARP positive nuclei fraction (WM115) | cleaved PARP positive nuclei fraction (WM1716) | cleaved PARP positive nuclei fraction (WM1745) | cleaved PARP positive nuclei fraction (WM3526) | cleaved PARP positive nuclei fraction (WM3619) | cleaved PARP positive nuclei fraction (WM451Lu)
1 | O=C(O)C(=O)Nc1sc2c(c1C(=O)O)CCNC2 + Cn1cc(/C=C2\C(=O)Nc3cccnc32)c2ccccc21 [GW441756] (first compound 1.66667 µM, partner dose 0.4 µM) | 163% | 85.9% | 110% | 87.6% | 95.1% | 72.9%
2 | COc1ccc2c(c1)CCC1C2CCC2(C)C(NCCCCCCN3C(=O)C=CC3=O)CCC12 (configuration not stated) + COc1cc2ncnc(Nc3ccc(Oc4ccccc4)cc3)c2cc1OC [SrcI1] (first compound 0.4 µM, partner dose 2 µM) | 59.7% | 66.1% | 114% | 154% | 111% | 56.8%
3 | CCc1ccc(CCOc2ccc(CC3SC(=O)NC3=O)cc2)nc1 (configuration not stated) [pioglitazone] + O=S(=O)(c1ccccc1)N(CC(F)(F)F)c1ccc(C(O)(C(F)(F)F)C(F)(F)F)cc1 [T0901317] (first compound 2 µM, partner dose 1.4 µM) | 100% | 198% | 121% | 157% | 158% | 96.9%
4 | COc1ccc(-c2ccc3c(N4CCOCC4)nc(N4C[C@@H](C)O[C@@H](C)C4)nc3n2)cc1CO + O=C1NC(=O)/C(=C/c2ccc(-c3ccc(F)cc3O)o2)S1 [AS252424] (first compound 0.02 µM, partner dose 1 µM) | 152% | 62.1% | 113% | 301% | 91.2% | 53.3%
5 | Oc1nc(-c2ccc(C(F)(F)F)cc2)nc2c1CSCC2 + Cn1cc(/C=C2\C(=O)Nc3cccnc32)c2ccccc21 [GW441756] (first compound 2 µM, partner dose 0.4 µM) | 71.5% | 98.7% | 118% | 64.8% | 104% | 109%
6 | CN(NC(=O)CC(=O)NN(C)C(=S)c1ccccc1)C(=S)c1ccccc1 + COc1ccc(COc2ccc(Cc3cnc(N)nc3N)cc2OC)cc1 [GW2580] (first compound 0.006 µM, partner dose 1 µM) | 74.5% | 78.2% | 184% | 67.9% | 247% | 115%
7 | COc1cc2c(Oc3ccc4[nH]c(C)cc4c3F)ncnc2cc1OCCCN1CCCC1 [cediranib] + COc1ccc2c(c1)CCC1C2CCC2(C)C(NCCCCCCN3C(=O)C=CC3=O)CCC12 [U73122] (first compound 0.4 µM, partner dose 0.4 µM) | 120% | 157% | 100% | 124% | 91.2% | 57.9%
8 | COc1ccc2c(c1)CCC1C2CCC2(C)C(NCCCCCCN3C(=O)C=CC3=O)CCC12 (configuration not stated) + Cc1cc([N+](=O)[O-])ccc1NS(=O)(=O)c1cc(Cl)ccc1Cl [FH535] (first compound 0.4 µM, partner dose 1 µM) | 106% | 107% | 112% | 68.7% | 90% | 56.7%
9 | Oc1cc(-c2nc(-c3ccccc3)[nH]c2-c2ccncc2)ccc1Cl + CCCCCCCCCCCC1=C(O)C(=O)C=C(O)C1=O [Embelin] (first compound 0.2 µM, partner dose 1.2 µM) | 85.4% | 11.3% | 104% | 67.5% | 79.8% | 76.9%
10 | O=C1NC(=O)/C(=C/c2ccc(-c3ccc(F)cc3O)o2)S1 + O=c1cc(-c2cccc3c2Sc2ccccc2S3)oc(N2CCOCC2)c1 [KU55933] (first compound 1 µM, partner dose 1 µM) | 220% | 65.5% | 89.1% | 93.1% | 160% | 61.4%
11 | O=C(Nc1ccccc1)c1cc([N+](=O)[O-])ccc1Cl + COc1cc2ncnc(Nc3ccc(Oc4ccccc4)cc3)c2cc1OC [SrcI1] (first compound 2 µM, partner dose 2 µM) | 123% | 93.9% | 130% | 83.5% | 96.1% | 136%
12 | CN(NC(=O)CC(=O)NN(C)C(=S)c1ccccc1)C(=S)c1ccccc1 + COc1cc2ncnc(Nc3ccc(Oc4ccccc4)cc3)c2cc1OC [SrcI1] (first compound 0.006 µM, partner dose 2 µM) | 179% | 175% | 195% | 67.2% | 377% | 156%
13 | CN(C)S(=O)(=O)c1ccc2c(c1)/C(=C/c1cc3c([nH]1)CCCC3)C(=O)N2 + Oc1cc(-c2nc(-c3ccccc3)[nH]c2-c2ccncc2)ccc1Cl [L779450] (first compound 0.4 µM, partner dose 0.2 µM) | 148% | 47.6% | 122% | 39.4% | 94.2% | 184%
14 | O=C1NC(=O)/C(=C/c2ccc(-c3ccc(F)cc3O)o2)S1 + Oc1nc(-c2ccc(C(F)(F)F)cc2)nc2c1CSCC2 [XAV939] (first compound 1 µM, partner dose 2 µM) | 155% | 172% | 111% | 78% | 91.3% | 88.9%
15 | O=C(Nc1ccccc1)c1cc([N+](=O)[O-])ccc1Cl + COC(=O)c1sccc1S(=O)(=O)Nc1ccc(Nc2ccccc2)cc1OC [GSK0660] (first compound 2 µM, partner dose 1 µM) | 223% | 170% | 113% | 75.6% | 94.8% | 75.3%
16 | O=C(O)c1ccc(-c2c[nH]c3ncc(-c4ccccc4)cc23)cc1C1CCCC1 + COc1ccc(-c2ccc3c(N4CCOCC4)nc(N4C[C@@H](C)O[C@@H](C)C4)nc3n2)cc1CO [KU0063794] (first compound 0.16 µM, partner dose 0.02 µM) | 56.2% | 77.9% | 102% | 73.9% | 86.1% | 46.4%
17 | Oc1nc(-c2ccc(C(F)(F)F)cc2)nc2c1CSCC2 + O=c1cc(-c2cccc3c2Sc2ccccc2S3)oc(N2CCOCC2)c1 [KU55933] (first compound 2 µM, partner dose 1 µM) | 49.2% | 318% | 121% | 72.6% | 85.4% | 90.6%
18 | O=C(O)c1ccc(-c2c[nH]c3ncc(-c4ccccc4)cc23)cc1C1CCCC1 + O=C1NC(=O)/C(=C/c2ccc(-c3ccc(F)cc3O)o2)S1 [AS252424] (first compound 0.16 µM, partner dose 1 µM) | 53.9% | 172% | 113% | 94.2% | 82.1% | 78.4%
19 | COC(=O)c1sccc1S(=O)(=O)Nc1ccc(Nc2ccccc2)cc1OC + Cc1cc([N+](=O)[O-])ccc1NS(=O)(=O)c1cc(Cl)ccc1Cl [FH535] (first compound 1 µM, partner dose 1 µM) | 151% | 92.4% | 111% | 62.8% | 82.4% | 113%
20 | COC(=O)c1sccc1S(=O)(=O)Nc1ccc(Nc2ccccc2)cc1OC + c1cc(-c2cnn3cc(-c4ccc(OCCN5CCCCC5)cc4)cnc23)ccn1 [Dorsomorphin] (first compound 1 µM, partner dose 0.4 µM) | 55.3% | 119% | 98.8% | 139% | 80.4% | 73.1%
21 | NCC(=O)Nc1ccc(-n2nc(C(F)(F)F)cc2-c2ccc3c(ccc4ccccc43)c2)cc1 + COC(=O)c1sccc1S(=O)(=O)Nc1ccc(Nc2ccccc2)cc1OC [GSK0660] (first compound 1 µM, partner dose 1 µM) | 128% | 78.6% | 101% | 78.9% | 82.6% | 98.3%
22 | CCc1ccc(CCOc2ccc(CC3SC(=O)NC3=O)cc2)nc1 (configuration not stated) [pioglitazone] + Oc1cc(-c2nc(-c3ccccc3)[nH]c2-c2ccncc2)ccc1Cl [L779450] (first compound 2 µM, partner dose 0.2 µM) | 126% | 75.9% | 116% | 81.5% | 75.3% | 78.4%
23 | COc1ccc(-c2ccc3c(N4CCOCC4)nc(N4C[C@@H](C)O[C@@H](C)C4)nc3n2)cc1CO + Oc1nc(-c2ccc(C(F)(F)F)cc2)nc2c1CSCC2 [XAV939] (first compound 0.02 µM, partner dose 2 µM) | 140% | 161% | 125% | 110% | 102% | 124%
24 | COc1ccc(COc2ccc(Cc3cnc(N)nc3N)cc2OC)cc1 + O=C(O)C(=O)Nc1sc2c(c1C(=O)O)CCNC2 [TCS401] (first compound 1 µM, partner dose 1.66667 µM) | 202% | 99.8% | 127% | 375% | 127% | 49.2%
25 | CCN(CC)CCCCNc1ncc2cc(-c3cc(OC)cc(OC)c3)c(NC(=O)NC(C)(C)C)nc2n1 + Oc1nc(-c2ccc(C(F)(F)F)cc2)nc2c1CSCC2 [XAV939] (first compound 0.1 µM, partner dose 2 µM) | 194% | 190% | 116% | 130% | 85.2% | 102%
26 | O=C(Nc1ccccc1)c1cc([N+](=O)[O-])ccc1Cl + O=c1cc(-c2cccc3c2Sc2ccccc2S3)oc(N2CCOCC2)c1 [KU55933] (first compound 2 µM, partner dose 1 µM) | 97.1% | 135% | 101% | 68.2% | 69.7% | 174%
27 | O=C(O)c1ccc(-c2c[nH]c3ncc(-c4ccccc4)cc23)cc1C1CCCC1 + O=C(Nc1ccccc1)c1cc([N+](=O)[O-])ccc1Cl [GW9662] (first compound 0.16 µM, partner dose 2 µM) | 194% | 74.2% | 94.3% | 73.6% | 76.9% | 249%

Quoted from the listing:
In cleaved PARP positive nuclei fraction (WM451Lu), COc1ccc(COc2ccc(Cc3cnc(N)nc3N)cc2OC)cc1 + O=C(O)C(=O)Nc1sc2c(c1C(=O)O)CCNC2 [TCS401] (first compound 1 µM, partner dose 1.66667 µM) has the entry 49.2%
In cleaved PARP positive nuclei fraction (WM451Lu), Oc1nc(-c2ccc(C(F)(F)F)cc2)nc2c1CSCC2 + O=c1cc(-c2cccc3c2Sc2ccccc2S3)oc(N2CCOCC2)c1 [KU55933] (first compound 2 µM, partner dose 1 µM) has the entry 90.6%
